Data: the supplement of paper PMC12889115
The other results are listed elsewhere or left out. Values are raw readings; no control value is given beside them.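 First-pass screen: polymyxin B was added at a level that permeabilizes the Salmonella outer membrane while sparing the inner membrane. DMSO wells, with and without polymyxin B, defined maximum growth. Because plates differed from one another, each plate's data were ranked separately and the compounds with the lowest OD600 were carried forward as hits.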

Tested on: Salmonella enterica serovar Typhimurium SL1344
Test: bacterial growth OD600 after 18 h with compound and polymyxin B; higher = more bacterial growth (less inhibition)
Details: 50 µM, Mueller-Hinton broth

Compound | bacterial growth OD600 (polymyxin B 0.75 µg/mL) | bacterial growth OD600 (polymyxin B 1 µg/mL)
COCc1c(C(=O)NCc2ccc3c(c2)CCCN3C)cnn1-c1ncc(C)c(-c2cccs2)n1 | 0.002 | –
COc1ccc(N2C(=O)CN(C(=O)c3cc(F)c(F)cc3F)CC2(C)C)cc1 | 0.911 | –
CC(C)Cc1ccc(CN2CCCC(NC(=O)CCCn3cncn3)C2)cc1 (stereo not given) | – | 0.829
COc1ccc2cc(-c3n[nH]cc3CN3CCC(OCc4cccnc4)CC3)ccc2c1 | – | 0.851
CCOC(=O)C1(Cc2ccc(F)cc2F)CCCN(C(=O)CCN2CCCCC2=O)C1 (stereo not given) | – | 1.11
CCCc1cc(C(=O)NCc2nc(-c3cccc(NC(=O)CCc4cccnc4)c3)oc2C)no1 | 0.533 | –
Cc1oc(-c2ccccc2NC(=O)CC2CCCC2)nc1CNC(=O)C(C)(C)C | 0.075 | –
CCn1cc(CN2CCCC(CCc3cccc(OC)c3)C2)cn1 (stereo not given) | 0.859 | –
O=C(c1nc2ccccn2c1CN1CCCCCCC1)N1CCN(C2CCCCC2)CC1 | – | 0.937
Cc1ccccc1CN(CC1CCN(C2CCCC2)CC1)CC1CCCO1 (stereo not given) | – | 0.893
COc1ccc(OC2CCN(C3CCCC3)CC2)c(C(=O)NCCOC(C)C)c1 | – | 0.964
O=C(CCc1ccccn1)N1CC[C@@H](N2CCN(c3ccccc3F)CC2)[C@H](O)C1 | – | 0.922
COC(=O)C1CCN(C(=O)c2cn(CCC3CCCCC3)nn2)CC1 | – | 0.825
CC(C)CCC1(C2CCN(C(=O)C3=CCCC3)CC2)NC(=O)N(Cc2ccccn2)C1=O (stereo not given) | 0.835 | –
OC(CCc1ccccc1)c1ccc2c(c1)CN(Cc1cccn1-c1ccccn1)CCO2 (stereo not given) | 0.594 | –
O=C(NC1CC(=O)N(Cc2ccccc2C(F)(F)F)C1)c1ccsc1 (stereo not given) | – | 0.921
COc1ccc(C(=O)NCC(C)(C)CO)cc1OC1CCN(C(C)C)CC1 | 0.974 | –
O=C(CCC1CCN(S(=O)(=O)c2ccc(Cl)cc2)CC1)NCc1ccc(F)cc1 | – | 1.1
CCOc1ccc2nc(N3CCCN(Cc4cccc5nccnc45)CC3)nc(C)c2c1 | 1.03 | –
Cc1ccccc1-c1cnnc(N(C)Cc2nc3cccc(C)c3[nH]2)n1 | 0.681 | –
Cc1nc2ccccc2n1Cc1cc(C(=O)N2CCCN(C3CCCC3)CC2)n[nH]1 | – | 0.94
COc1cc(=O)n2c(c1C(=O)NCc1ccc3c(c1)OCO3)CCN(C(=O)CC(C)(C)C)CC2 | 0.873 | –
O=C(C1CC1)N1CCCC(CCc2cccc(F)c2)C1 (stereo not given) | 0.469 | –
Cc1cccnc1CN1CCN(C(=O)Cn2nnnc2CN2CCCC2)CC1 | 0.834 | –
CC(=O)Nc1cc(C(=O)N2CCC(c3ccc(F)cc3)C2)c2c(c1)nc(C)n2Cc1ccccc1 (stereo not given) | 0.931 | –
O=C(NCCN1CCCCC1=O)c1ccc2nc(Cc3ccccc3F)oc2c1 | 0.839 | –
O=C(CCC1CCN(CCCn2cccn2)CC1)N1CCN(c2ccccc2)CC1 | – | 0.942
CC(C)(CO)NC(=O)CC(c1ccccc1)c1cccc(Cl)c1 (stereo not given) | 0.452 | –
CC(C)N(C)C(=O)C1CCCN(C2CCN(c3nc4ccccc4o3)CC2)C1 (stereo not given) | 0.884 | –
C=C(C)CNCC1(O)CCCN(Cc2ccc(F)c(F)c2)C1=O (stereo not given) | – | 1.1

In another format: results already given.
COc1cc(=O)n2c(c1C(=O)NCc1ccc3c(c1)OCO3)CCN(C(=O)CC(C)(C)C)CC2
  bacterial growth OD600 (polymyxin B 0.75 µg/mL): 0.873
O=C(C1CC1)N1CCCC(CCc2cccc(F)c2)C1 (stereo not given)
  bacterial growth OD600 (polymyxin B 0.75 µg/mL): 0.469
